Measurements as given in the supplement of paper PMC10849652.
Some of the results follow. Residues, ends and D or L forms follow the SMILES beside them. *: point of attachment. Cbz = O=C(OCc1ccccc1)*

The chains behind the UniProt entries cited, without tags or fusion partners. Where a name states a change or a piece, a line headed by the entry shows the natural chain unless it says otherwise.
UniProt Q9BZZ5: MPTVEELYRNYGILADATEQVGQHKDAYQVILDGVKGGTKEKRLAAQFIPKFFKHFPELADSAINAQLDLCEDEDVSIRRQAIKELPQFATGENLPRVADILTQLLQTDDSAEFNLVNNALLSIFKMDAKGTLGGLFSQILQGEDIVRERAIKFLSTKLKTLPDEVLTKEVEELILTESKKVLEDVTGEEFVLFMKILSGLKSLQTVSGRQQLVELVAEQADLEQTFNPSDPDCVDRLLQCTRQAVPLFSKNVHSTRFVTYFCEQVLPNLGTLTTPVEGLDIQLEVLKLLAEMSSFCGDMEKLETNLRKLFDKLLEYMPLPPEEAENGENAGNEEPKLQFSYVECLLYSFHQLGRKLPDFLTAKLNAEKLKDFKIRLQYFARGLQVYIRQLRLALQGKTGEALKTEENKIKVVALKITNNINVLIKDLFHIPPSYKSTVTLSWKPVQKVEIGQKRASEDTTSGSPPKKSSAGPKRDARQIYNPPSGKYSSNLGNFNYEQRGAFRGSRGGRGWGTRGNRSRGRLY
UniProt Q9Y6D5: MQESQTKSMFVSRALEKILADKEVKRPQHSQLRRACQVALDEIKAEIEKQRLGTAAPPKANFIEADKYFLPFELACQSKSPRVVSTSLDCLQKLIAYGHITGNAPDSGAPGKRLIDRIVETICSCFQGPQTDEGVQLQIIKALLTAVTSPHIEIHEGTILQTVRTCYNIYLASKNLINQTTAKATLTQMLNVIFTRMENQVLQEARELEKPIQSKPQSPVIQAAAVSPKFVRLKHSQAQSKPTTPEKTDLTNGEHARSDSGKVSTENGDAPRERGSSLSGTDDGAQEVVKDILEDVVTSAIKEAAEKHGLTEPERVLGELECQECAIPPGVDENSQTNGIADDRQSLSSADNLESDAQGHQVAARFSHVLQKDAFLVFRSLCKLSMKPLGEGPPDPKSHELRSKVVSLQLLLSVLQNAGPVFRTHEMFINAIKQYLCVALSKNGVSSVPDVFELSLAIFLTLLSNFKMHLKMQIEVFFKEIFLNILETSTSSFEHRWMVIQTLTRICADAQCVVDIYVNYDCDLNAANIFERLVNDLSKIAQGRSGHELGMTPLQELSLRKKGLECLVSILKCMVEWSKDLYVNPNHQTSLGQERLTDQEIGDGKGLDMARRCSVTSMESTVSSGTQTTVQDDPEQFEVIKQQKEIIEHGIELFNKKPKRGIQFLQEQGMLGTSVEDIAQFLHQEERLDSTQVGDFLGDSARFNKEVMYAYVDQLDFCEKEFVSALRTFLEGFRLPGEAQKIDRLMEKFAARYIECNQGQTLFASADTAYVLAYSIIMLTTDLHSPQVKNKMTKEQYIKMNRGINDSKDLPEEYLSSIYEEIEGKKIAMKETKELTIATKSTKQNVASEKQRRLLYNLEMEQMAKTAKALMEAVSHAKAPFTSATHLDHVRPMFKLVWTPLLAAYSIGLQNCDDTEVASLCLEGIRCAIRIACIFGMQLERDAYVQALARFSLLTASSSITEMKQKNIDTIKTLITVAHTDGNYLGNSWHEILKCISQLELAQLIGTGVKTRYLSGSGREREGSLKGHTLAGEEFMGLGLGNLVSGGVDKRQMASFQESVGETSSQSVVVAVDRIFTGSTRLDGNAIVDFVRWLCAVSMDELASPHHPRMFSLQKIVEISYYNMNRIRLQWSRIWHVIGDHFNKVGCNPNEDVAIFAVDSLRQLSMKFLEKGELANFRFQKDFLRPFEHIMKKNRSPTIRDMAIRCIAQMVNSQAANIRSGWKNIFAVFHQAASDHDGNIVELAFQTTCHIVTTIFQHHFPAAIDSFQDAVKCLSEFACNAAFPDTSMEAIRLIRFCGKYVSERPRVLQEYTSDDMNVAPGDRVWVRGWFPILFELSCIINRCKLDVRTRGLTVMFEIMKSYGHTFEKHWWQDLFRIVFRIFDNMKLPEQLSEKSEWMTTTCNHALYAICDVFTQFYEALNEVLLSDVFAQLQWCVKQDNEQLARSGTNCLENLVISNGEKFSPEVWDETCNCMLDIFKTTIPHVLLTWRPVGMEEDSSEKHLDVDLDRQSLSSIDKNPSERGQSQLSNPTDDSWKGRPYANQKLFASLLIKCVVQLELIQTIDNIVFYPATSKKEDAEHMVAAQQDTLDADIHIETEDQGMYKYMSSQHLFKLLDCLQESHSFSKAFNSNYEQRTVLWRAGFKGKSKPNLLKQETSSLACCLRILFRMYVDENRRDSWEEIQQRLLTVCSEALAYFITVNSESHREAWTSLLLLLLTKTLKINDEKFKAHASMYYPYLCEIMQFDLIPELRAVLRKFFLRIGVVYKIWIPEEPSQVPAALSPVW
UniProt O43299: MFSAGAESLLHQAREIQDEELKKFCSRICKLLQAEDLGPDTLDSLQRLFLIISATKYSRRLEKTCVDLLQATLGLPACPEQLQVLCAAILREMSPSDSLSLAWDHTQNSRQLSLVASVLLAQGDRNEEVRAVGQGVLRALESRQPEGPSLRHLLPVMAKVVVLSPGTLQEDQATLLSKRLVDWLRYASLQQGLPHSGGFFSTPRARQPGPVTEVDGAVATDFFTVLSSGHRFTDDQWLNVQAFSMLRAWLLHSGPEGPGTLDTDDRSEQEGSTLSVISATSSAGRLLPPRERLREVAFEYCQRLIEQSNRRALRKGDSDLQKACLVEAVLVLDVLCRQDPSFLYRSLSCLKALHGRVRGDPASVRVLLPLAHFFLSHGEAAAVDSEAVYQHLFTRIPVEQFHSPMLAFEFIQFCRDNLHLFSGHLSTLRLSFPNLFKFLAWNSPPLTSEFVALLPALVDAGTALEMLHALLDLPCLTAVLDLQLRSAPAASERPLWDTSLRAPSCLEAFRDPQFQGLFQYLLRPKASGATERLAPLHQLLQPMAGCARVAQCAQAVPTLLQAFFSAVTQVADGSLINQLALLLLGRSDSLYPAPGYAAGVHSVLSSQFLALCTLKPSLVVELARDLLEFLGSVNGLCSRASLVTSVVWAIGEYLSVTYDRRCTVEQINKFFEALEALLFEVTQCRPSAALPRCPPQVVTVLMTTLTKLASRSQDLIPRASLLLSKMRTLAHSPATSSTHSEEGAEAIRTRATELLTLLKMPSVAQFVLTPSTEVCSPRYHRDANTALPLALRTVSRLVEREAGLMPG
UniProt P20073: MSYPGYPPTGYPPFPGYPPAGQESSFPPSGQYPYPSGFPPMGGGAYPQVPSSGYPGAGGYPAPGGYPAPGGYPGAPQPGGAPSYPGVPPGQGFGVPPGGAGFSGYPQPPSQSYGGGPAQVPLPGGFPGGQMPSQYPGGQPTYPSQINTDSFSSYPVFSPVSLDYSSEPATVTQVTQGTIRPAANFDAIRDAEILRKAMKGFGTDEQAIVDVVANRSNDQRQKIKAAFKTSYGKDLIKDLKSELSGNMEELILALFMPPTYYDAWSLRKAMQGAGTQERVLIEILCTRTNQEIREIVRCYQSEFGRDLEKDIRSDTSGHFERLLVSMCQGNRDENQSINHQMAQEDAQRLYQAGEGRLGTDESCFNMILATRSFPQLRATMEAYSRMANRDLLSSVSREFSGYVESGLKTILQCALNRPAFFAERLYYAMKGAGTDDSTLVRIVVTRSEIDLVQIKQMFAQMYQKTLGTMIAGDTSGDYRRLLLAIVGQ
UniProt P13798: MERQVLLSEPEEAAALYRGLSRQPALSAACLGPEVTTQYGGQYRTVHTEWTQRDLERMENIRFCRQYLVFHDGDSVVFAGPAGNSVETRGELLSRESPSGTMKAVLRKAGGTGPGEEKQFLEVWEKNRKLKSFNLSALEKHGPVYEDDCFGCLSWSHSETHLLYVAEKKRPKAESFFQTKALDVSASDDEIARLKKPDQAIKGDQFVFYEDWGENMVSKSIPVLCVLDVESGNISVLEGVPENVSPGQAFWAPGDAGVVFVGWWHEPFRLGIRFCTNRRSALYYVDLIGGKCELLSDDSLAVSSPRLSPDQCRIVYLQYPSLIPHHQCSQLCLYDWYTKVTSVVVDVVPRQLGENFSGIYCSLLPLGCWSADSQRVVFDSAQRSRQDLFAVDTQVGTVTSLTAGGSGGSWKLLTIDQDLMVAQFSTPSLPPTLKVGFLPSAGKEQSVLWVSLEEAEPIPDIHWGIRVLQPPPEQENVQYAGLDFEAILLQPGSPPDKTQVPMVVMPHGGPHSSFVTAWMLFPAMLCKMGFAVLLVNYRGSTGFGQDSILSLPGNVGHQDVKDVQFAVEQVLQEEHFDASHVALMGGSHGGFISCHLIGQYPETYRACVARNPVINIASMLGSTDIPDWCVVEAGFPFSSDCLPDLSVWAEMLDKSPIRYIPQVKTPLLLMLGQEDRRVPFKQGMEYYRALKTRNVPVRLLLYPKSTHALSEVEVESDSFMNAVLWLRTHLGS
UniProt P08133: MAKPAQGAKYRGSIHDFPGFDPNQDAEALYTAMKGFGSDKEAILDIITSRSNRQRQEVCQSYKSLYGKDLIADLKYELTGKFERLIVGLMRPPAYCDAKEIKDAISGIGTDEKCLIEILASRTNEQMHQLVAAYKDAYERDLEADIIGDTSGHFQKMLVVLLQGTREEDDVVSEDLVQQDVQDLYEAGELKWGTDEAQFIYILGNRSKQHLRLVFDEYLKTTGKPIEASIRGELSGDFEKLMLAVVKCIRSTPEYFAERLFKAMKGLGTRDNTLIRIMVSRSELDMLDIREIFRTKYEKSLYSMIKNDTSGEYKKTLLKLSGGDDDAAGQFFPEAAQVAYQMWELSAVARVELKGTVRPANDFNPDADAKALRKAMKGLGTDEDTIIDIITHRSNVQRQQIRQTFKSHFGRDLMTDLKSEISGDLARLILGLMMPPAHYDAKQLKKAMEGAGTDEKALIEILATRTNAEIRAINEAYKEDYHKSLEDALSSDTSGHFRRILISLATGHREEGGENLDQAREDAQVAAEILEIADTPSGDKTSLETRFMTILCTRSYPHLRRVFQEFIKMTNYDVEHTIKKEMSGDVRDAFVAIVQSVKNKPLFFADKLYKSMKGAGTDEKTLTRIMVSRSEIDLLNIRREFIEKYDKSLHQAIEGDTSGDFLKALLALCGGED
UniProt Q92688: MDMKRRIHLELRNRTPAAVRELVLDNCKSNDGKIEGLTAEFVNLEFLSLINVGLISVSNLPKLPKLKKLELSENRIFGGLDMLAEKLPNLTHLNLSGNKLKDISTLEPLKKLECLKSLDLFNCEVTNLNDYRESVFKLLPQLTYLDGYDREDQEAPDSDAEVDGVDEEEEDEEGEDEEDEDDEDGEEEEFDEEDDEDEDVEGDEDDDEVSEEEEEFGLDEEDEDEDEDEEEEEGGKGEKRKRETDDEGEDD
UniProt P07741: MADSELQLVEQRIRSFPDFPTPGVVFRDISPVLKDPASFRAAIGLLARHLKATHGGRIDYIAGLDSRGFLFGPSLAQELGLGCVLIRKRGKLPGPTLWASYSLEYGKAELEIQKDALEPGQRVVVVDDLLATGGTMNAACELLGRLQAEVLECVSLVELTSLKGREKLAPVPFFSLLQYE
UniProt O14617: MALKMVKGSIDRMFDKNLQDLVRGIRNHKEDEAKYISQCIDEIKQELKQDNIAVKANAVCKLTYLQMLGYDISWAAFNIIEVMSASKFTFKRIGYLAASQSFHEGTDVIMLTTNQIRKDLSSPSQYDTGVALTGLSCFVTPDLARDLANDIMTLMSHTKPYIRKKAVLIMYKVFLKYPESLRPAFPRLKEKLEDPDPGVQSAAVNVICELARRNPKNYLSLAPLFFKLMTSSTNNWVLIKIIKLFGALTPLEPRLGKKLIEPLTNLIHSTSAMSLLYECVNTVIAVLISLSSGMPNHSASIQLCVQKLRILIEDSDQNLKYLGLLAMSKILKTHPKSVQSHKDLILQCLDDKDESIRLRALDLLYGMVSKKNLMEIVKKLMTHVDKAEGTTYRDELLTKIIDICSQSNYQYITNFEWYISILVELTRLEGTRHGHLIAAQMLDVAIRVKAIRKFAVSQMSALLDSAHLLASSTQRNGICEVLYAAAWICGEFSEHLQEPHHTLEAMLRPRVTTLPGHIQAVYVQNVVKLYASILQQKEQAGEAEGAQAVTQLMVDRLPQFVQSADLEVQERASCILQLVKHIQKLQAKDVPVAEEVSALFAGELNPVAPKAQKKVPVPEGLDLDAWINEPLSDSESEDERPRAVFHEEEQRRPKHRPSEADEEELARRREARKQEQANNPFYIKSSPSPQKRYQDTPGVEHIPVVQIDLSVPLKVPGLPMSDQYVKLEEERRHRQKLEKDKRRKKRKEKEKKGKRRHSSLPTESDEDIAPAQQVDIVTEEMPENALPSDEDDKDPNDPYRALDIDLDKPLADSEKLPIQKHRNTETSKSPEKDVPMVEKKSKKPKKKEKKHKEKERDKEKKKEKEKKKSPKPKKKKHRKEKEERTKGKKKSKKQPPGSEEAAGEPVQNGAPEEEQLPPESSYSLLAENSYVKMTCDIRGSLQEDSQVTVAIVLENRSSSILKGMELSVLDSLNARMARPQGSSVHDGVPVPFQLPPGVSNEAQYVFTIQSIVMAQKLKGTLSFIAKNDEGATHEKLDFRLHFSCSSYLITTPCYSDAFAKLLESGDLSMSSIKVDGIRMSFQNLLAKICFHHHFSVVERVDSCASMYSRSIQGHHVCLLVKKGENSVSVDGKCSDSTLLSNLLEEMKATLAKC

Experiments:
Experiment in all cases: log2 fold change, soluble protein after heating vs DMSO (PISA); higher = thermal stabilisation; K562 cells, 10 uM, 30 min; active = over 0.2 and 3.5 SD of the protein, either way, in both replicates (recomputed)
[1] = compound: C#Cc1cccc(Nc2ncnc3cc(OCCOC)c(OCCOC)cc23)c1 [erlotinib]
In short: (§1)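 Soluble protein was quantified by TMTpro 16plex LC-MS/MS after channel sums were equalised. It was obtained as the supernatant after 21,000xg for 90 min from pooled aliquots of K562 cells (2×10^6 cells/mL, 10 μM compound, 30 min) heated for 3 min across 48°C-58°C and extracted in PBS with 0.5% NP-40 at 4°C. Thermal stability values are relative to control samples and come from duplicates. They are given as log2 fold changes.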

[2] = compound: C/C(=N\NC(=O)C1=CC(=CC=C1)S(=O)(=O)N2CCOCC2)/C3=C(C=CC(=C3)Cl)O
In short: as §1

[3] = compound: C1=CC(=C(C=C1Cl)C2=NC3=NC=CN=C3C(=N2)NC4=CC=NC=C4)F
In short: as §1

[4] = compound: C1=CC(=CC=C1C2=NC3=C(N2)C=C(C=C3)C(=O)N)OC4=CC=C(C=C4)Cl
In short: as §1

[5] = compound: C1=CC2=C(C=CC(=C2)/C=C\3/C(=O)NC(=NCC4=CC=CS4)S3)N=C1
In short: as §1

[6] = compound: C1=CC2=NC=CN=C2C=C1/C=C/3\C(=O)NC(=O)S3
In short: as §1

[7] = compound: C1=CC=C(C=C1)C2=NC(=C(N2)C3=CC=NC=C3)C4=CC(=C(C=C4)Cl)O
In short: as §1

[8] = compound: C1=CC=C2C(=C1)C3=NNC4=CC=CC(=C43)C2=O
In short: as §1

[9] = compound: C1CCN(C1)C(=O)NC2=CC=CC(=C2)NC3=NC=C(C(=N3)NCCC4=CN=CN4)Br
In short: as §1

[10] = compound: C1CN(CCC1(CC2=CC=C(C=C2)Cl)N)C3=NC=NC4=C3C=CN4
In short: as §1

[11] = compound: C1COCCN1CCN2C3=CC=CC=C3N=C2NC(=O)C4=CC(=CC=C4)[N+](=O)[O-] [IRAK-1-4 Inhibitor I]
In short: as §1

[12] = compound: C=CC(=O)N1CCC[C@@H](n2nc(-c3ccc(Oc4ccccc4)cc3)c3c(N)ncnc32)C1 [ibrutinib]
In short: as §1

[13] = compound: CC(=O)c1cnc2ccc(-c3cc(Cl)c(O)c(Cl)c3)nc2c1N[C@H]1CC[C@H](CN(C)C)CC1
In short: as §1

[14] = compound: CC(C)(C)Cn1c(N)nc2ccc(-c3[nH]c(C(C)(C)C)nc3-c3ccc(F)cc3)nc21 [ralimetinib]
In short: as §1

[15] = compound: CC(C)(O)CC(=O)NCCn1ccc2ncnc(Nc3ccc(Oc4cccc(C(F)(F)F)c4)c(Cl)c3)c21
In short: as §1

[16] = compound: CC(C)C1=C2N=C(C=C(N2N=C1)NCC3=CC=CC=C3)NCCCCCCN
In short: as §1

[17] = compound: CC(C)C[C@@H](C=O)NC(=O)[C@H](CC(C)C)NC(=O)[C@H](CC(C)C)NC(=O)OCc1ccccc1
In short: as §1

[18] = compound: CC(C)N(C[C@H]1O[C@@H](n2cnc3c(N)ncnc32)[C@H](O)[C@@H]1O)[C@H]1C[C@@H](CCc2nc3cc(C(C)(C)C)ccc3[nH]2)C1 [pinometostat]
In short: as §1

[19] = compound: CC1=C(C(CC(=O)N1)C2=CC=C(C=C2)C(F)(F)F)C(=O)NC3=C(C=C4C(=C3)C=NN4)F
In short: as §1

[20] = compound: CC1=C(C2=C(C=C1)C(=O)C3=CC=CC=C3N2CCCN)C
In short: as §1

Measured: log2 fold change

ANAPC16 (UniProt Q96DE5)
inactive: [1] -0.05 | [2] 0.055 | [3] -0.077 | [4] -0.004 | [5] 0.105 | [6] 0.04 | [7] -0.021 | [8] -0.055 | [9] -0.105 | [10] -0.175 | [11] 0.011 | [12] 0.015 | [13] -0.159 | [14] 0.019 | [15] -0.052 | [16] -0.041 | [17] 0.025 | [18] -0.24 | [19] 0.026 | [20] 0.193

APMAP (UniProt Q9HDC9)
inactive: [1] 0.006 | [2] -0.006 | [3] 0.002 | [4] 0 | [5] 0.013 | [6] 0.01 | [7] -0.049 | [8] 0.01 | [9] 0.014 | [10] 0.037 | [11] 0.033 | [12] -0.015 | [13] -0.01 | [14] -0.07 | [15] 0.026 | [16] 0.025 | [17] -0.001 | [18] -0.019 | [19] 0.02 | [20] 0

API5 isoform 2 (UniProt Q9BZZ5)
inactive: [1] 0.077 | [2] 0.062 | [3] 0.213 | [4] -0.141 | [5] -0.125 | [6] -0.004 | [7] 0.007 | [8] -0.052 | [9] -0.042 | [10] -0.038 | [11] 0.024 | [12] 0.017 | [13] -0.12 | [14] -0.018 | [15] 0.085 | [16] 0.07 | [17] 0.008 | [18] -0.047 | [19] 0.018 | [20] 0.063

ARFGEF2 (UniProt Q9Y6D5)
inactive: [1] -0.034 | [2] 0.084 | [3] -0.004 | [4] -0.014 | [5] -0.002 | [6] -0.007 | [7] -0.045 | [8] 0.012 | [9] 0.042 | [10] 0.005 | [11] -0.021 | [12] -0.031 | [13] 0.047 | [14] 0.002 | [15] 0.001 | [16] -0.058 | [17] 0.026 | [18] 0.052 | [19] -0.051 | [20] -0.026

AP5Z1 (UniProt O43299)
inactive: [1] 0.239 | [2] -0.062 | [3] 0.064 | [4] 0.025 | [5] 0.243 | [6] -0.041 | [7] -0.124 | [8] -0.038 | [9] 0.233 | [10] 0.077 | [11] 0.253 | [12] 0.106 | [13] -0.107 | [14] -0.059 | [15] 0.066 | [16] 0 | [17] 0.091 | [18] 0.058 | [19] -0.004 | [20] 0.07

Random excerpt: 2 records from the list
ARFGEF2 (UniProt Q9Y6D5)
inactive: [1] -0.034 | [2] 0.084 | [3] -0.004 | [4] -0.014 | [5] -0.002 | [6] -0.007 | [7] -0.045 | [8] 0.012 | [9] 0.042 | [10] 0.005 | [11] -0.021 | [12] -0.031 | [13] 0.047 | [14] 0.002 | [15] 0.001 | [16] -0.058 | [17] 0.026 | [18] 0.052 | [19] -0.051 | [20] -0.026

AP5Z1 (UniProt O43299)
inactive: [1] 0.239 | [2] -0.062 | [3] 0.064 | [4] 0.025 | [5] 0.243 | [6] -0.041 | [7] -0.124 | [8] -0.038 | [9] 0.233 | [10] 0.077 | [11] 0.253 | [12] 0.106 | [13] -0.107 | [14] -0.059 | [15] 0.066 | [16] 0 | [17] 0.091 | [18] 0.058 | [19] -0.004 | [20] 0.07

(listing goes on)

APOC1 (UniProt P02654)
inactive: [1] -0.166 | [2] 0.079 | [3] 0.277 | [4] 0.099 | [5] 0.028 | [6] 0.111 | [7] 0.111 | [8] -0.004 | [9] -0.084 | [10] -0.065 | [11] 0.1 | [12] 0.016 | [13] -0.007 | [14] -0.037 | [15] -0.111 | [16] 0.003 | [17] -0.023 | [18] -0.017 | [19] 0.045 | [20] 0.182

AP3B1 (UniProt O00203)
inactive: [1] 0.008 | [2] 0.072 | [3] 0.024 | [4] -0.014 | [5] 0.061 | [6] 0.014 | [7] 0.07 | [8] 0.023 | [9] -0.014 | [10] -0.009 | [11] -0.024 | [12] -0.024 | [13] -0.01 | [14] 0.06 | [15] -0.071 | [16] -0.055 | [17] 0.004 | [18] 0.023 | [19] -0.004 | [20] -0.012

ANXA7 (UniProt P20073)
inactive: [1] -0.045 | [2] 0.08 | [3] 0.088 | [4] 0.006 | [5] -0.013 | [6] -0.008 | [7] 0.07 | [8] 0.012 | [9] 0.007 | [10] -0.036 | [11] 0.037 | [12] 0.018 | [13] 0.009 | [14] 0.007 | [15] -0.03 | [16] 0.025 | [17] -0.012 | [18] -0.038 | [19] 0.046 | [20] 0.007

APEH (UniProt P13798)
inactive: [1] -0.034 | [2] -0.006 | [3] 0.013 | [4] 0.011 | [5] 0.008 | [6] 0.001 | [7] 0 | [8] -0.014 | [9] 0.004 | [10] 0.035 | [11] 0.034 | [12] 0 | [13] 0.004 | [14] -0.036 | [15] 0.001 | [16] 0.048 | [17] -0.021 | [18] -0.016 | [19] -0.004 | [20] 0.018

ARHGEF2 (UniProt Q92974)
inactive: [1] 0 | [2] -0.053 | [3] -0.603 | [4] 0.021 | [5] 0 | [6] 0.018 | [7] -0.04 | [8] -0.017 | [9] -0.086 | [10] -0.096 | [11] -0.145 | [12] 0.015 | [13] 0.066 | [14] 0.219 | [15] 0.003 | [16] -0.317 | [17] 0.139 | [18] 0.581 | [19] -0.023 | [20] -0.018

ANXA6 (UniProt P08133)
inactive: [1] 0 | [2] 0.044 | [3] 0.023 | [4] 0.014 | [5] 0.012 | [6] 0.062 | [7] 0.019 | [8] -0.012 | [9] 0.003 | [10] -0.036 | [11] -0.02 | [12] -0.007 | [13] 0.001 | [14] -0.018 | [15] -0.04 | [16] -0.055 | [17] 0.122 | [18] 0.078 | [19] 0.012 | [20] -0.001

ANP32B (UniProt Q92688)
inactive: [1] -0.006 | [2] 0.042 | [3] -0.006 | [4] -0.014 | [5] 0.013 | [6] 0.015 | [7] -0.043 | [8] 0.006 | [9] -0.019 | [10] 0.019 | [11] 0.057 | [12] -0.042 | [13] -0.069 | [14] -0.051 | [15] 0.013 | [16] -0.061 | [17] -0.01 | [18] -0.023 | [19] 0.039 | [20] -0.067

APRT (UniProt P07741)
inactive: [1] 0.021 | [2] -0.005 | [3] 0.072 | [4] -0.005 | [5] 0.082 | [6] 0.008 | [7] -0.032 | [8] -0.013 | [9] 0.012 | [10] 0.012 | [11] 0.065 | [12] 0.006 | [13] 0.004 | [14] -0.038 | [15] -0.017 | [16] 0.037 | [17] -0.006 | [18] -0.053 | [19] -0.005 | [20] 0.008

AP3D1 isoform 5 (UniProt O14617)
inactive: [1] -0.003 | [2] 0.086 | [3] -0.024 | [4] -0.001 | [5] 0.019 | [6] -0.012 | [7] 0.033 | [8] 0 | [9] 0.018 | [10] -0.006 | [11] -0.049 | [12] -0.013 | [13] -0.039 | [14] 0.049 | [15] -0.045 | [16] -0.043 | [17] 0.011 | [18] 0.043 | [19] 0.019 | [20] -0.034

AP1AR (UniProt Q63HQ0)
inactive: [1] -0.129 | [2] -0.078 | [3] 0.058 | [4] 0.132 | [5] 0.067 | [6] 0.085 | [7] -0.005 | [8] -0.051 | [9] 0.022 | [10] 0.07 | [11] -0.01 | [12] 0.035 | [13] 0.013 | [14] -0.049 | [15] 0.009 | [16] -0.042 | [17] 0.016 | [18] -0.058 | [19] 0.059 | [20] -0.013
